{"source": "paper PMC12040169", "about": "(PLOS Biology, 2025)", "note": "The other results are listed elsewhere or left out."}
{"test_system": "T1, CTL2-GFP (C. trachomatis L2/434/Bu, GFP-expressing)", "T1 construct": "L2/434/Bu, GFP-expressing", "design": "species or system HeLa; Intracellular C. trachomatis growth in HeLa cells, bulk GFP fluorescence relative to DMSO", "details": "bulk GFP, single well; 28.5 h, 10 µM; inhibitor", "units": {"% of control remaining": "%"}}
{"smiles": "Cc1cc(=O)oc2cc(OCc3ccc(S(=O)(=O)N4CCOCC4)cc3)ccc12", "note": "[CBK267402]", "% of control remaining": 131.956}
{"smiles": "CC(=O)N1CCC(C(=O)Nc2cnc(-c3ccc(F)c(Cl)c3)c(-c3cccnc3)n2)CC1", "note": "[CBK036719]", "% of control remaining": 78.5737}
{"smiles": "CCC1CCCCN1C(=O)c1cccc(C(=O)OC)c1", "note": "(centres unmarked) [CBK083195]", "% of control remaining": 55.8556}
{"smiles": "O=C(Cn1cccc(C(=O)NC2CCCCC2)c1=O)NC1(c2ccccc2)CCCC1", "note": "[CBK286059]", "% of control remaining": 142.928}
{"smiles": "O=C(NCCCN1CCCC1=O)c1cnc(-c2ccc(Cl)cc2)c(-c2ccncc2)c1", "note": "[CBK037545]", "% of control remaining": 143.615}
{"smiles": "O=C(NCc1cccnc1)c1cc(Br)cnc1NCCOc1ccccc1", "note": "[CBK076265]", "% of control remaining": 94.2294}
{"smiles": "Cc1ccc(S(=O)(=O)Nc2ccc(-c3cn4cccnc4n3)cc2)cc1[N+](=O)[O-]", "note": "[CBK268936]", "% of control remaining": 105.99}
{"smiles": "COCC(=O)N1CCc2sccc2C1c1ccc(NCc2ccc(C)o2)cc1", "note": "(centres unmarked) [CBK286447]", "% of control remaining": 120.254}
{"smiles": "CC(C)CSc1nsc(N)n1", "note": "[CBK019938]", "% of control remaining": 100}
{"smiles": "CN(CC1(C)COC1)C(=O)C1CC(=O)N(C(C)(C)C)C1", "note": "(centres unmarked) [CBK281724]", "% of control remaining": 129.055}
{"smiles": "O=C(OCc1ccccc1F)c1cccc(-c2nnc(-c3ccccc3)o2)c1", "note": "[CBK267798]", "% of control remaining": 127.271}
{"smiles": "O=C(CC1CCCCC1)Nc1ccc(Cl)nc1", "note": "[CBK091349]", "% of control remaining": 96.3191}
{"smiles": "Cn1cc(C(=O)N2CCc3ncc(Cl)cc3C2)ccc1=O", "note": "[CBK285130]", "% of control remaining": 132.617}
{"smiles": "COc1ccc(C2(C(=O)NCc3cccs3)CC2)cc1", "note": "[CBK149831]", "% of control remaining": 113.497}
{"smiles": "O=C(NCc1cccs1)c1ccc2[nH]ccc2c1", "note": "[CBK149060]", "% of control remaining": 118.796}
{"smiles": "CCOC(=O)c1cccc(S(=O)(=O)NC(C)Cn2cncn2)c1", "note": "(centres unmarked) [CBK305820]", "% of control remaining": 132.893}
{"smiles": "CN(C(=O)OC(C)(C)C)C1CN(C(c2ccccc2)c2ccccc2)C1", "note": "[CBK008111]", "% of control remaining": 124.005}
{"smiles": "O=c1ccc2ccc(-c3cccc(OCc4ccccc4)c3)nc2[nH]1", "note": "[CBK073722]", "% of control remaining": 100}
{"smiles": "O=C(O)CC1Cn2ncc(-c3ccccc3)c2NC1=O", "note": "(centres unmarked) [CBK288187]", "% of control remaining": 117.1}
{"smiles": "COC(=O)C1C2CCN(CC2)C1SCc1cccc(C(F)(F)F)c1", "note": "(centres unmarked) [CBK010829C]", "% of control remaining": 100}
{"smiles": "CC(c1nc2ccccc2[nH]1)N1CCC2(CC1)NCCc1c2[nH]c2ccccc12", "note": "(centres unmarked) [CBK040061]", "% of control remaining": 90.7445}
{"smiles": "O=C(Nc1cc2ccccc2c(N2CCNCC2)n1)c1cnccn1", "note": "[CBK036346T]", "% of control remaining": 112.121}
{"smiles": "O=c1cc(-c2ccc(Br)cc2)nc2[nH]ccn12", "note": "[CBK016446]", "% of control remaining": 124.855}
{"smiles": "CSCCC(C(=O)O)N1C(=O)C(=Cc2ccc(-c3cc(Cl)cc(Cl)c3)o2)SC1=S", "note": "(centres unmarked) [CBK296984]", "% of control remaining": 170.305}
{"smiles": "Cc1ccc(S(=O)(=O)N=C2NCN(CCOC(=O)c3ccc([N+](=O)[O-])cc3)CN2)cc1", "note": "[CBK265235]", "% of control remaining": 100}
{"smiles": "Cn1c(=O)n(C)c2cc(CN3CCN(C4CCCC4)C(=O)C3)ccc21", "note": "[CBK281909]", "% of control remaining": 147.568}
{"smiles": "O=S(=O)(Nc1ccc(N2CCCCC2)cc1)c1cccc2cccnc12", "note": "[CBK263077]", "% of control remaining": 118.486}
{"smiles": "Cc1cc(I)cnc1NC(=O)CSc1ccc(Cl)cc1", "note": "[CBK266438]", "% of control remaining": 116.488}
{"smiles": "CN1CCN(c2c(C(=O)O)cc([N+](=O)[O-])cc2[N+](=O)[O-])CC1", "note": "[CBK261519]", "% of control remaining": 100}
{"smiles": "CCN(CC)C(=O)CN1C(=O)C2(Nc3ccccc3C(=O)N2c2ccc(C)cc2)c2ccccc21", "note": "(centres unmarked) [CBK093478]", "% of control remaining": 84.1686}
{"smiles": "O=C(Nc1ccc(/C=C/c2ccccc2)cc1)c1ccc(COc2ccccc2)o1", "note": "[CBK267829]", "% of control remaining": 127.423}
{"smiles": "CNCC1CCCN(Cc2cn(-c3ccc(Br)cc3)nc2C)C1", "note": "(centres unmarked) [CBK304301C]", "% of control remaining": 144.013}
{"smiles": "Cc1oc(NC(=O)CN2CCN(c3ccccn3)CC2)c(C#N)c1C", "note": "[CBK236456]", "% of control remaining": 77.1853}
{"smiles": "Cc1cnn(C)c1CN1CCC(C(N)=O)(N2CCCCC2)CC1", "note": "[CBK304400]", "% of control remaining": 125.031}
{"smiles": "COCC(=O)N[C@H]1CCN2C(=O)c3cc(-c4cccc(C)c4C)ccc3NC(=O)[C@@H]2C1", "note": "[CBK289562]", "% of control remaining": 135.778}
{"smiles": "COc1ccc(Cl)cc1NC(=O)CN(C1CCCCC1)S(C)(=O)=O", "note": "[CBK266720]", "% of control remaining": 126.67}
{"smiles": "Cn1cc(C(=O)N2CCc3ccccc32)c2ccccc21", "note": "[CBK200407]", "% of control remaining": 111.748}
{"smiles": "CC(=O)N1c2ccc(-c3cn4cc(C)ccc4n3)cc2CC1C", "note": "(centres unmarked) [CBK285195]", "% of control remaining": 105.869}
{"smiles": "CC(=O)N1CCc2sccc2C1c1ccccc1NC(=O)c1ccco1", "note": "(centres unmarked) [CBK286436]", "% of control remaining": 136.833}
{"smiles": "Cc1nnc(SCC(=O)N/N=C/c2coc3ccccc3c2=O)n1-c1ccccc1", "note": "[CBK262842]", "% of control remaining": 100}
{"smiles": "Cc1cccc(C(=O)NC(CC(C)C)c2nnc3n2CCNCC3)n1", "note": "(centres unmarked) [CBK306866]", "% of control remaining": 113.394}
{"smiles": "CC1CCCCN1Cc1nc2c(c(=O)n(C)c(=O)n2C)n1CCc1ccccc1", "note": "(centres unmarked) [CBK269189]", "% of control remaining": 112.733}
{"smiles": "Cc1oc(-c2ccccc2)nc1C(=O)N1CCCN(C)CC1", "note": "[CBK073940C]", "% of control remaining": 80.4871}
{"smiles": "COc1cccc(-c2nnc(SCC(=O)Nc3cccc([N+](=O)[O-])c3)n2C)c1", "note": "[CBK266074]", "% of control remaining": 124.985}
{"smiles": "Cc1cc(NC(=O)CN(C)C(=O)Cc2cccc(C(F)(F)F)c2)no1", "note": "[CBK305564]", "% of control remaining": 147.061}
{"smiles": "C=CCNC(=O)C1(Cc2ccccc2-c2ccncc2)CCOCC1", "note": "[CBK284784]", "% of control remaining": 126.101}
{"smiles": "c1ccc2c(c1)OCC(c1nn3c(Cn4cnc5ccccc54)nnc3s1)O2", "note": "(centres unmarked) [CBK268436]", "% of control remaining": 108.513}
{"smiles": "Cc1ccc(C(=O)COc2ccc(/C=C(\\C#N)c3nc(-c4ccc5c(c4)OCO5)cs3)cc2)cc1", "note": "[CBK266778]", "% of control remaining": 124.006}
{"smiles": "Cc1ccc(S(=O)(=O)N/N=C(/c2ccccc2)c2ccc(OCC(C)C)cc2)cc1", "note": "[CBK261056]", "% of control remaining": 82.9854}
{"smiles": "CC(=O)N[C@H]1CC[C@]2(C)CCC([C@H](C)C(=O)NCCN3CCCC3)[C@H](O)[C@H]2[C@@H]1C", "note": "(some centres unmarked) [CBK289440]", "% of control remaining": 156.616}
